According to patent publication US20220298163A1, “BTK INHIBITORS WITH IMPROVED DUAL SELECTIVITY” (BEIGENE, LTD., priority 2017, published 2022):

Assay: Rat pharmacokinetic study
Format: in vivo, Male Sprague Dawley rats
Conditions: male, Sprague Dawley, plasma

AUC(0-inf) (IV 1 mg·kg^−1 / PO 5 mg·kg^−1 study, route not given): 4800 ng·h/mL
bioavailability (oral bioavailability, PO 5 mg·kg^−1 vs IV 1 mg·kg^−1): 69.5%
clearance (single IV 1 mg·kg^−1): 13.7 mL/min/kg
Cmax (single PO 5 mg·kg^−1): 2250 ng/mL
Structure (SMILES): [2H]C([2H])([2H])Oc1cc(-c2nn3c(c2C(N)=O)NCCC3C2CCN(C(=O)C=C)CC2)cc(OC([2H])([2H])[2H])c1C (single isomer, unassigned) [Example A11b, (R or S)-7-(1-acryloylpiperidin-4-yl)-2-(3,5-bis(methoxy-d3)-4-methylphenyl)-4,5,6,7-tetrahydropyrazolo[1,5-a]pyrimidine-3-carboxamide]
